These results are taken from article PMC12145428.

Amino acid sequences for entries named in this document (tags omitted). A change or cut given only in a name is not applied to a line headed by its entry. Chains listed by the source or under a name are the forms on record and can include a tag or linker.
FLAG-tagged MRG15S (plasmid pCMV-3Tag-6-M4S) (P60762, form named): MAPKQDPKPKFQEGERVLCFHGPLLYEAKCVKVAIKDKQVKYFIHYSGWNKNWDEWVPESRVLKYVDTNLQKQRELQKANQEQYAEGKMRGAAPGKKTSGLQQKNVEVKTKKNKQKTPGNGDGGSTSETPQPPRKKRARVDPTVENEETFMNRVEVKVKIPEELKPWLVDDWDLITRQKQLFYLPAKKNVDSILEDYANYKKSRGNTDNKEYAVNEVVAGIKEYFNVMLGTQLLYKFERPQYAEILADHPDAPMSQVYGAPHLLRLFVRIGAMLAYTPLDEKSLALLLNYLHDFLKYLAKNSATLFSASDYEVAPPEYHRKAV
UniProt P26599: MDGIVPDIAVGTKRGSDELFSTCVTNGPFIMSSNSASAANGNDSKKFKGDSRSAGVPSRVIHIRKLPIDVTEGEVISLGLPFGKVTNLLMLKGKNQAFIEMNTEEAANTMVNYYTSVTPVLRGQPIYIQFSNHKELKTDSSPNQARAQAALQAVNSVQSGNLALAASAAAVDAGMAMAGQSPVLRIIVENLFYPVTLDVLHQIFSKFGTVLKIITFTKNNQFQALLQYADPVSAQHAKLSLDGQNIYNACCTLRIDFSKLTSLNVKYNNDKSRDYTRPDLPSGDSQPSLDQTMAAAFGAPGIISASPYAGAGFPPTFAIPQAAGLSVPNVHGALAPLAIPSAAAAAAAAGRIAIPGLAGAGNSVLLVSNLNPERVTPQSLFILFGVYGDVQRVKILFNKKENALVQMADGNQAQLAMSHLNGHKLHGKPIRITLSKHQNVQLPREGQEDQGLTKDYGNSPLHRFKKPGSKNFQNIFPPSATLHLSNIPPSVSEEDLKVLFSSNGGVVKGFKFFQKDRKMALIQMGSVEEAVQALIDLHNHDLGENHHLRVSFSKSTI

To fix the notation:
B1: Rb (protein, UniProt P06400 1-928)
chain: MPPKTPRKTAATAAAAAAEPPAPPPPPPPEEDPEQDSGPEDLPLVRLEFEETEEPDFTALCQKLKIPDHVRERAWLTWEKVSSVDGVLGGYIQKKKELWGICIFIAAVDLDEMSFTFTELQKNIEISVHKFFNLLKEIDTSTKVDNAMSRLLKKYDVLFALFSKLERTCELIYLTQPSSSISTEINSALVLKVSWITFLLAKGEVLQMEDDLVISFQLMLCVLDYFIKLSPPMLLKEPYKTAVIPINGSPRTPRRGQNRSARIAKQLENDTRIIEVLCKEHECNIDEVKNVYFKNFIPFMNSLGLVTSNGLPEVENLSKRYEEIYLKNKDLDARLFLDHDKTLQTDSIDSFETQRTPRKSNLDEEVNVIPPHTPVRTVMNTIQQLMMILNSASDQPSENLISYFNNCTVNPKESILKRVKDIGYIFKEKFAKAVGQGCVEIGSQRYKLGVRLYYRVMESMLKSEEERLSIQNFSKLLNDNIFHMSLLACALEVVMATYSRSTSQNLDSGTDLSFPWILNVLNLKAFDFYKVIESFIKAEGNLTREMIKHLERCEHRIMESLAWLSDSPLFDLIKQSKDREGPTDHLESACPLNLPLQNNHTAADMYLSPVRSPKKKGSTTRVNSTANAETQATSAFQTQKPLKSTSLSLFYKKVYRLAYLRLNTLCERLLSEHPELEHIIWTLFQHTLQNEYELMRDRHLDQIMMCSMYGICKVKNIDLKFKIIVTAYKDLPHAVQETFKRVLIKEEEYDSIIVFYNSVFMQRLKTNILQYASTRPPTLSPIPHIPRSPYKFPSSPLRIPGGNIYISPLKSPYKISEGLPTPTKMTPRSRILVSIGESFGTSEKFQKINQMVCNSDRVLKRSAEGSNPPKPLKKLRFDIEGSDEADGSKHLPGESKFQQKLAEMTSTRTRMQKQKMNDSMDTSNKEEK
B2: pRb (protein, UniProt P06400 1-928)
chain: MPPKTPRKTAATAAAAAAEPPAPPPPPPPEEDPEQDSGPEDLPLVRLEFEETEEPDFTALCQKLKIPDHVRERAWLTWEKVSSVDGVLGGYIQKKKELWGICIFIAAVDLDEMSFTFTELQKNIEISVHKFFNLLKEIDTSTKVDNAMSRLLKKYDVLFALFSKLERTCELIYLTQPSSSISTEINSALVLKVSWITFLLAKGEVLQMEDDLVISFQLMLCVLDYFIKLSPPMLLKEPYKTAVIPINGSPRTPRRGQNRSARIAKQLENDTRIIEVLCKEHECNIDEVKNVYFKNFIPFMNSLGLVTSNGLPEVENLSKRYEEIYLKNKDLDARLFLDHDKTLQTDSIDSFETQRTPRKSNLDEEVNVIPPHTPVRTVMNTIQQLMMILNSASDQPSENLISYFNNCTVNPKESILKRVKDIGYIFKEKFAKAVGQGCVEIGSQRYKLGVRLYYRVMESMLKSEEERLSIQNFSKLLNDNIFHMSLLACALEVVMATYSRSTSQNLDSGTDLSFPWILNVLNLKAFDFYKVIESFIKAEGNLTREMIKHLERCEHRIMESLAWLSDSPLFDLIKQSKDREGPTDHLESACPLNLPLQNNHTAADMYLSPVRSPKKKGSTTRVNSTANAETQATSAFQTQKPLKSTSLSLFYKKVYRLAYLRLNTLCERLLSEHPELEHIIWTLFQHTLQNEYELMRDRHLDQIMMCSMYGICKVKNIDLKFKIIVTAYKDLPHAVQETFKRVLIKEEEYDSIIVFYNSVFMQRLKTNILQYASTRPPTLSPIPHIPRSPYKFPSSPLRIPGGNIYISPLKSPYKISEGLPTPTKMTPRSRILVSIGESFGTSEKFQKINQMVCNSDRVLKRSAEGSNPPKPLKKLRFDIEGSDEADGSKHLPGESKFQQKLAEMTSTRTRMQKQKMNDSMDTSNKEEK
modifications: printed only as pRb (no site given)

These are yes or no findings as the source states them, for the method shown. In cells and extracts the contact can be indirect. Some results given as binding are weak or reduced against the parent protein; the word gives no strength.

For the assay, the target named is FLAG-tagged MRG15S (plasmid pCMV-3Tag-6-M4S) (mouse) (UniProt P60762). The assay is described as follows: co-IP; cell lysate with the FLAG-fusion protein on ANTI-FLAG M2 affinity gel overnight at 4 °C; washes in TBS (50 mM Tris-HCl, 150 mM NaCl, pH 7.4); elution with 3×FLAG peptide; Western blot.
For the molecule PTBP1 (from UniProt P26599 1-557), the binding result is “binds”. The result for B1 reads “binds”. Next, B2: “binds”.
